Reference: PubChem BioAssay AID2685 (National Center for Advancing Translational Sciences (NCATS), 2010)
This is one part of the list. Shown are side measurements of this screen, not its main read-out; they come without a call. Most of these compounds were active or inconclusive in the main read-out, so they are no random draw. Words in brackets tell the shape of the fitted curve; partial curves, single points and poor fits give uncertain potencies.

Assay: qHTS Assay for Lipid Storage Modulators in Drosophila S3 Cells;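 for cell number change: cells counted by Cell Tracker Red CMTPX staining in the red channel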
Conditions: BODIPY lipid droplet fluorescence, 18-24 h; for cell number change: measured here: cell count max response, cells fed with added oleic acid
How it was run: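 Laser-scanning cytometry quantifies lipid droplet accumulation (500–530 nm total intensity; droplet/cell object ratio) in oleic acid-fed (400 uM added) Drosophila S3 cells treated with a concentration series. 20 uM Triacsin C defined 100% inhibition.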

[1] = measured here: cell number channel AC50, cells fed with added oleic acid
[2] = measured here: lipid fluorescence (Fed channel) AC50, cells fed with added oleic acid

SMILES	cell number change	AC50 [1]	AC50 [2]
CCn1nnnc1NCc1ccc(OCc2ccc(F)cc2Cl)c(OC)c1	8.7%	3.26 µM [rising, partial curve]	–
O=C(CCNS(=O)(=O)c1cccc2nsnc12)N1CCc2ccccc21	-58.1%	23.1 µM [falling, single point]	–
O=[N+]([O-])c1ccc(N(CCO)Cc2ccccc2)c([N+](=O)[O-])c1	-9.82%	–	18.4 µM [falling, partial curve]
CCOc1cc(/C=N/NC(=O)c2cc(C)n(-c3ccc(F)cc3)c2C)ccc1O	21.9%	6.51 µM [rising, partial curve, poor fit]	5.17 µM [rising, partial curve]
O=C(O)C1CC(O)CN1S(=O)(=O)c1ccc2ccccc2c1 (stereo not given)	–	–	0.231 µM [falling, full curve, poor fit]
Cc1ccc(CCNC(=O)C2CCC(=O)N2C(C)C)cc1 (stereo not given)	-18.4%	–	13 µM [falling, partial curve]
O=C(C1CCN(S(=O)(=O)N2CCC3(CC2)OCCO3)CC1)N1CCCCC1	-14.9%	–	0.116 µM [falling, full curve, poor fit]
CCOc1cccc(C2c3c(oc4ccccc4c3=O)C(=O)N2c2ccccn2)c1 (stereo not given)	9.95%	0.326 µM [rising, full curve, poor fit]	6.51 µM [rising, single point]
COc1ccc(NC(=O)C2CCCN(S(=O)(=O)c3c(C)[nH]c(=O)[nH]c3=O)C2)cc1 (stereo not given)	7.7%	–	2.31 µM [rising, single point]
O=C1CC[C@H](O)CCN1[C@H](CSc1ccc(Br)cc1)Cc1ccccc1	7.8%	3.26 µM [falling, single point]	–
CC(OC(=O)/C(C#N)=C/c1ccc(N(C)C)cc1)C(=O)N(C)Cc1ccccc1 (stereo not given)	-13%	–	–
COc1cccc(NC(=O)CN(C)C(=O)c2ccccc2CCc2ccccc2)c1	-5.89%	–	0.461 µM [falling, full curve, poor fit]
CC(Sc1nnc(N)s1)C(=O)NCc1ccc2c(c1)OCO2 (stereo not given)	-3.26%	0.291 µM [falling, single point]	–
Cc1ccccc1Nc1cccc2nonc12	-0.683%	–	1.3 µM [falling, partial curve]
COc1ccc(Cc2c(O)nc(SCC(C)C)[nH]c2=O)cc1	-5.97%	–	18.4 µM [falling, single point]
CCCNC(=O)c1ccc(COc2cccc3ccccc23)o1	-27.7%	–	29.1 µM [falling, single point]
CCCn1c(SCc2ccon2)nc2ccccc2c1=O	-0.583%	–	0.731 µM [rising, single point]
Cc1csc(NC(=O)c2nc3nccc(C)n3n2)n1	15.3%	–	0.116 µM [falling, full curve, poor fit]
COCCn1c(SCC(=O)NC(=O)NCc2ccccc2)nc2ccccc21	-13.2%	–	–
Cc1cccc(NC(=O)CSc2nc3ccc(N4C(=O)c5ccccc5C4=O)cc3s2)c1C	-11.5%	–	–

Part of the list above, as a markdown table:

| SMILES | cell number change | AC50 [1] | AC50 [2] |
| --- | --- | --- | --- |
| CCn1nnnc1NCc1ccc(OCc2ccc(F)cc2Cl)c(OC)c1 | 8.7% | 3.26 µM [rising, partial curve] | – |
| CCOc1cc(/C=N/NC(=O)c2cc(C)n(-c3ccc(F)cc3)c2C)ccc1O | 21.9% | 6.51 µM [rising, partial curve, poor fit] | 5.17 µM [rising, partial curve] |
| O=C(C1CCN(S(=O)(=O)N2CCC3(CC2)OCCO3)CC1)N1CCCCC1 | -14.9% | – | 0.116 µM [falling, full curve, poor fit] |
| CC(OC(=O)/C(C#N)=C/c1ccc(N(C)C)cc1)C(=O)N(C)Cc1ccccc1 (stereo not given) | -13% | – | – |
| COc1cccc(NC(=O)CN(C)C(=O)c2ccccc2CCc2ccccc2)c1 | -5.89% | – | 0.461 µM [falling, full curve, poor fit] |
| CCCn1c(SCc2ccon2)nc2ccccc2c1=O | -0.583% | – | 0.731 µM [rising, single point] |
| COCCn1c(SCC(=O)NC(=O)NCc2ccccc2)nc2ccccc21 | -13.2% | – | – |

(listing goes on)

SMILES	cell number change	AC50 [1]	AC50 [2]
O=C(c1cccc(F)c1)N1CCN(c2cccc(C(F)(F)F)c2)CC1	143%	23.1 µM [rising, single point]	29.1 µM [rising, single point]
Cc1ccnc(NC(=O)CCC(=O)N(CC(=O)NCCc2ccccc2)c2ccccc2F)c1	-19.2%	–	29.1 µM [falling, partial curve, poor fit]
Cc1ccc(S(=O)(=O)Cn2nnnc2CN2CCN(Cc3ccc4c(c3)OCO4)CC2)cc1	-18.6%	–	–
CC(=O)N1CCOc2ccc(S(=O)(=O)NCc3ccccc3Cl)cc21	18.8%	–	20.6 µM [rising, partial curve]
CC(C)(C)C(C(=O)O)N1CCS(=O)(=O)CC1 (stereo not given)	-15.4%	0.164 µM [falling, full curve, poor fit]	–
O=C1CCN(Cc2cccnc2)CCN1[C@H](CO)c1ccccc1	23.1%	–	29.1 µM [rising, single point]
O=P(OC1CCS(=O)(=O)C1)(c1ccccc1)c1ccccc1 (stereo not given)	-30.7%	–	0.00461 µM [falling, full curve, poor fit]
Cc1cc(S(=O)(=O)N2CCCC(C)C2)ccc1-n1cnnn1 (stereo not given)	35.7%	–	–
COc1cccc(NC(=S)N(CCc2c(C)[nH]c3ccccc23)Cc2cccs2)c1	-4.06%	–	0.231 µM [rising, full curve]
COCCCn1c(SCc2cccc(OC)c2)nc2cc(OC)c(OC)cc2c1=N	-18.8%	–	29.1 µM [falling, single point]
CC1(C)OC(=O)N(CCc2ccccc2)C1(C)O (stereo not given)	-1.35%	–	1.84 µM [falling, partial curve]
O=C(CCNS(=O)(=O)c1ccc(Cl)cc1)NCc1cccs1	-21.7%	–	20.6 µM [falling, single point]
COC(=O)c1ccc(C)c(NC(=O)Cn2cnc3ccccc3c2=O)c1	23.9%	–	3.26 µM [falling, partial curve, poor fit]
COc1ccc2[nH]c3c4c(ccc3c2c1)C(=O)C=CC4=O	-60.2%	9.2 µM [falling, partial curve]	9.2 µM [falling, partial curve]
COc1cc(C(=O)N2CCN(C(=O)C3CCCO3)CC2)cc(OC)c1OC (stereo not given)	4.37%	–	1.84 µM [rising, full curve]
CCOC(=O)c1ccc(N/C(=N/S(=O)(=O)c2ccccc2)c2ccccc2)cc1	–	–	18.4 µM [rising, partial curve]
CCCCn1c(NCc2ccc3c(c2)OCO3)nc2ccccc21	0.531%	–	2.31 µM [falling, full curve, poor fit]
Cc1ccccc1C(=O)N1CCC(C(=O)Nc2ccc(F)cc2)CC1	74.9%	29.1 µM [rising, single point]	29.1 µM [rising, single point]
CC1C(O)=C(c2nc3ccccc3[nH]2)C(=N)N1c1ccccc1 (stereo not given)	16.9%	–	–
